# This is one part of the list.
# Key:
# Test in all cases: glycan array binding signal (z-score within array); higher = stronger binding
# Conditions in all cases: glycan notation: IUPAC condensed, linker removed
# [1] = biological target: Gal(b1-4)GlcNAc(a1-6)Gal(b1-4)GlcNAc
# In short: (§1)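 Negative Z-scores can be read as non-binding. The Z-score is calculated within each array and then averaged across arrays of one protein sequence at different concentrations or buffers and across linkers. Arrays, 3228 in all, were curated from the Consortium for Functional Glycomics database and kept only where the protein sequence was available.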
# [2] = biological target: Gal(b1-4)GlcNAc(b1-2)Man(a1-3)Man(b1-4)GlcNAc(b1-4)GlcNAc
# In short: as §1
# [3] = biological target: Gal(b1-4)GlcNAc(b1-2)Man(a1-3)[Gal(b1-4)GlcNAc(b1-2)Man(a1-6)]Man(b1-4)GlcNAc(b1-4)GlcNAc
# In short: as §1
# [4] = biological target: Gal(b1-4)GlcNAc(b1-2)Man(a1-3)[Gal(b1-4)GlcNAc(b1-2)Man(a1-6)]Man(b1-4)GlcNAc(b1-4)[Fuc(a1-6)]GlcNAc
# In short: as §1
# [5] = biological target: Gal(b1-4)GlcNAc(b1-2)Man(a1-3)[GlcNAc(b1-2)Man(a1-6)]Man(b1-4)GlcNAc(b1-4)GlcNAc
# In short: as §1
# [6] = biological target: Gal(b1-4)GlcNAc(b1-2)Man(a1-3)[Man(a1-6)]Man(b1-4)GlcNAc(b1-4)GlcNAc
# In short: as §1
# [7] = biological target: Gal(b1-4)GlcNAc(b1-2)Man(a1-6)Man(b1-4)GlcNAc(b1-4)GlcNAc
# In short: as §1
# [8] = biological target: Gal(b1-4)GlcNAc(b1-2)Man(a1-6)[GlcNAc(b1-2)Man(a1-3)]Man(b1-4)GlcNAc(b1-4)GlcNAc
# In short: as §1
# [9] = biological target: Gal(b1-4)GlcNAc(b1-2)Man(a1-6)[Man(a1-3)]Man(b1-4)GlcNAc(b1-4)GlcNAc
# In short: as §1
# [10] = biological target: Gal(b1-4)GlcNAc(b1-2)[Gal(b1-4)GlcNAc(b1-4)]Man(a1-3)[Gal(b1-4)GlcNAc(b1-2)Man(a1-6)]Man(b1-4)GlcNAc(b1-4)GlcNAc
# In short: as §1
# [11] = biological target: Gal(b1-4)GlcNAc(b1-2)[Gal(b1-4)GlcNAc(b1-4)]Man(a1-3)[Gal(b1-4)GlcNAc(b1-2)[Gal(b1-4)GlcNAc(b1-6)]Man(a1-6)]Man(b1-4)GlcNAc(b1-4)GlcNAc
# In short: as §1
# [12] = biological target: Gal(b1-4)GlcNAc(b1-3)Gal(b1-3)GlcNAc
# In short: as §1
# [13] = biological target: Gal(b1-4)GlcNAc(b1-3)Gal(b1-4)Glc
# In short: as §1
# [14] = biological target: Gal(b1-4)GlcNAc(b1-3)Gal(b1-4)GlcNAc
# In short: as §1
# [15] = biological target: Gal(b1-4)GlcNAc(b1-3)Gal(b1-4)GlcNAc(b1-3)Gal(b1-4)GlcNAc
# In short: as §1
# [16] = biological target: Gal(b1-4)GlcNAc(b1-3)Gal(b1-4)[Fuc(a1-3)]GlcNAc(b1-3)Gal(b1-4)[Fuc(a1-3)]GlcNAc
# In short: as §1
# [17] = biological target: Gal(b1-4)GlcNAc(b1-3)GalNAc
# In short: as §1
# [18] = biological target: Gal(b1-4)GlcNAc(b1-3)[Gal(b1-4)GlcNAc(b1-6)]Gal(b1-4)GlcNAc
# In short: as §1
# [19] = biological target: Gal(b1-4)GlcNAc(b1-3)[Gal(b1-4)GlcNAc(b1-6)]GalNAc
# In short: as §1
# [20] = biological target: Gal(b1-4)GlcNAc(b1-3)[GlcNAc(b1-6)]Gal(b1-4)GlcNAc
# In short: as §1
# [21] = biological target: Gal(b1-4)GlcNAc(b1-6)Gal(b1-4)GlcNAc
# In short: as §1
# [22] = biological target: Gal(b1-4)GlcNAc(b1-6)GalNAc
# In short: as §1
# [23] = biological target: Gal(b1-4)GlcNAc(b1-6)[Gal(b1-3)]GalNAc
# In short: as §1
# Gal3S(b1-3)GalNAc = biological target: Gal3S(b1-3)GalNAc
# In short: as §1
# Gal3S(b1-3)GlcNAc = biological target: Gal3S(b1-3)GlcNAc
# In short: as §1
# [24] = biological target: Gal3S(b1-3)[Fuc(a1-4)]GlcNAc
# In short: as §1
# Gal3S(b1-4)Glc = biological target: Gal3S(b1-4)Glc
# In short: as §1
# Gal3S(b1-4)Glc6S = biological target: Gal3S(b1-4)Glc6S
# In short: as §1
# Gal3S(b1-4)GlcNAc = biological target: Gal3S(b1-4)GlcNAc
# In short: as §1
# Gal3S(b1-4)GlcNAc6S = biological target: Gal3S(b1-4)GlcNAc6S
# In short: as §1
# [25] = biological target: Gal3S(b1-4)[Fuc(a1-3)]Glc
# In short: as §1
# [26] = biological target: Gal3S(b1-4)[Fuc(a1-3)]Glc6S
# In short: as §1
# Gal3S4S(b1-4)GlcNAc = biological target: Gal3S4S(b1-4)GlcNAc
# In short: as §1
# Gal3S6S(b1-4)GlcNAc = biological target: Gal3S6S(b1-4)GlcNAc
# In short: as §1
# Gal3S6S(b1-4)GlcNAc6S = biological target: Gal3S6S(b1-4)GlcNAc6S
# In short: as §1
# Gal4S(b1-4)GlcNAc = biological target: Gal4S(b1-4)GlcNAc
# In short: as §1
# Gal4S6S(b1-4)GlcNAc = biological target: Gal4S6S(b1-4)GlcNAc
# In short: as §1
binder,measurement,setting,value
"PEB4 (Campylobacter jejuni), A1VYV6 (protein) MKKFSLVAAALIAGVALNVNAATVATVNGKSISDAEVSEFFAPMLRGQDFKTLPDNQKKALIQQYIMQDLILQDAKKQNLEKDPLYTKELDRAKDAILVNVYQEKILNTIKIDAAKVKAFYDQNKDKYVKPARVQAKHILVATEKEAKDIINELKGLKGKELDAKFSELAKEKSIDPGSKNQGGELGWFDQSTMVKPFTDAAFALKNGTITTTPVKTNFGYHVILKENSQAKGQIKFDEVKQGIENGLKFEEFKKVINQKGQDLLNSAKVEYK",glycan array binding signal (z-score),[1],-0.22
same,glycan array binding signal (z-score),[2],-0.258
same,glycan array binding signal (z-score),[3],-0.037
same,glycan array binding signal (z-score),[4],-0.356
same,glycan array binding signal (z-score),[5],-0.111
same,glycan array binding signal (z-score),[6],-0.5
same,glycan array binding signal (z-score),[7],-0.308
same,glycan array binding signal (z-score),[8],-0.711
same,glycan array binding signal (z-score),[9],0.224
same,glycan array binding signal (z-score),[10],2.58
same,glycan array binding signal (z-score),[11],-0.075
same,glycan array binding signal (z-score),[12],-0.273
same,glycan array binding signal (z-score),[13],-0.221
same,glycan array binding signal (z-score),[14],-0.828
same,glycan array binding signal (z-score),[15],-0.659
same,glycan array binding signal (z-score),[16],-0.063
same,glycan array binding signal (z-score),[17],-0.283
same,glycan array binding signal (z-score),[18],0.53
same,glycan array binding signal (z-score),[19],1.2
same,glycan array binding signal (z-score),[20],1.47
same,glycan array binding signal (z-score),[21],-0.647
same,glycan array binding signal (z-score),[22],1.2
same,glycan array binding signal (z-score),[23],-0.709
same,glycan array binding signal (z-score),Gal3S(b1-3)GalNAc,0.405
same,glycan array binding signal (z-score),Gal3S(b1-3)GlcNAc,0.006
same,glycan array binding signal (z-score),[24],-0.243
same,glycan array binding signal (z-score),Gal3S(b1-4)Glc,1.21
same,glycan array binding signal (z-score),Gal3S(b1-4)Glc6S,0.487
same,glycan array binding signal (z-score),Gal3S(b1-4)GlcNAc,1.19
same,glycan array binding signal (z-score),Gal3S(b1-4)GlcNAc6S,-0.071
same,glycan array binding signal (z-score),[25],-0.429
same,glycan array binding signal (z-score),[26],1.27
same,glycan array binding signal (z-score),Gal3S4S(b1-4)GlcNAc,-0.119
same,glycan array binding signal (z-score),Gal3S6S(b1-4)GlcNAc,-0.279
same,glycan array binding signal (z-score),Gal3S6S(b1-4)GlcNAc6S,-0.532
same,glycan array binding signal (z-score),Gal4S(b1-4)GlcNAc,-0.002
same,glycan array binding signal (z-score),Gal4S6S(b1-4)GlcNAc,0.392

# Exported as tab-separated lines: entries from further up
binder	measurement	setting	value
PEB4 (Campylobacter jejuni), A1VYV6 (protein) MKKFSLVAAALIAGVALNVNAATVATVNGKSISDAEVSEFFAPMLRGQDFKTLPDNQKKALIQQYIMQDLILQDAKKQNLEKDPLYTKELDRAKDAILVNVYQEKILNTIKIDAAKVKAFYDQNKDKYVKPARVQAKHILVATEKEAKDIINELKGLKGKELDAKFSELAKEKSIDPGSKNQGGELGWFDQSTMVKPFTDAAFALKNGTITTTPVKTNFGYHVILKENSQAKGQIKFDEVKQGIENGLKFEEFKKVINQKGQDLLNSAKVEYK	glycan array binding signal (z-score)	[2]	-0.258
same	glycan array binding signal (z-score)	[23]	-0.709
same	glycan array binding signal (z-score)	[24]	-0.243

# — the supplement of paper PMC8728848
